Results are given in words; binding and its absence hold for the method and conditions named. Some results given as binding are weak or reduced against the parent protein; the word gives no strength.
T1: FhuCB subcomplex (membrane subunit FhuB and cytosolic ATPase FhuC of the ferrichrome importer), wild type (Escherichia coli) (UniProt P07821+P06972)
T1 sequence (chain, red-tris-NTA 2nd generation dye on the His-tag (in the MST experiments)) 1: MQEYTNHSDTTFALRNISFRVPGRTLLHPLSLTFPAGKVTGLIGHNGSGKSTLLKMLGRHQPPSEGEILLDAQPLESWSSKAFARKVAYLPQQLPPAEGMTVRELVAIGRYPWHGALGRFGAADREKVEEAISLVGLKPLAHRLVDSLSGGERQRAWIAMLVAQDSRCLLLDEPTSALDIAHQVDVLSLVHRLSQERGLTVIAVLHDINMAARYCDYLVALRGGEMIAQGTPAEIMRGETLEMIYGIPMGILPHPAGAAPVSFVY
T1 sequence (chain, red-tris-NTA 2nd generation dye on the His-tag (in the MST experiments)) 2: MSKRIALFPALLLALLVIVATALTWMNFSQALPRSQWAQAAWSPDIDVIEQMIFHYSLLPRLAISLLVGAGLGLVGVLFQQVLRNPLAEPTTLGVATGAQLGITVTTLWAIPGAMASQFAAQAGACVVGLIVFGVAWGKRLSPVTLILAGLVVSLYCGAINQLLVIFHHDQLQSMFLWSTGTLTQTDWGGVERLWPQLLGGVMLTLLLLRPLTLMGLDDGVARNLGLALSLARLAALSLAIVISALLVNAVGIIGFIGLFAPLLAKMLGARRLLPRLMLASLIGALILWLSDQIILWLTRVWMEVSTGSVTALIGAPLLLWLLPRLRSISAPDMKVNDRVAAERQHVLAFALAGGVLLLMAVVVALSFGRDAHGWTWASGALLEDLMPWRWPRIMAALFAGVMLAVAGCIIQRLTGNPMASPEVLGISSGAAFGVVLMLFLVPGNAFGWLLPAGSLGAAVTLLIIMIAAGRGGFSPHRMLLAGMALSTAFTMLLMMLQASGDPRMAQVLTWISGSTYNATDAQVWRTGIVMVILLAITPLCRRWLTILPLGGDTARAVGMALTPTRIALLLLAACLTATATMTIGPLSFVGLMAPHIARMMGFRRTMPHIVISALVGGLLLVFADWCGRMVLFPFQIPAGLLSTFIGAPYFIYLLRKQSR

T2: FhuB, membrane subunit of FhuCDB (Escherichia coli) (UniProt P06972)
T2 sequence: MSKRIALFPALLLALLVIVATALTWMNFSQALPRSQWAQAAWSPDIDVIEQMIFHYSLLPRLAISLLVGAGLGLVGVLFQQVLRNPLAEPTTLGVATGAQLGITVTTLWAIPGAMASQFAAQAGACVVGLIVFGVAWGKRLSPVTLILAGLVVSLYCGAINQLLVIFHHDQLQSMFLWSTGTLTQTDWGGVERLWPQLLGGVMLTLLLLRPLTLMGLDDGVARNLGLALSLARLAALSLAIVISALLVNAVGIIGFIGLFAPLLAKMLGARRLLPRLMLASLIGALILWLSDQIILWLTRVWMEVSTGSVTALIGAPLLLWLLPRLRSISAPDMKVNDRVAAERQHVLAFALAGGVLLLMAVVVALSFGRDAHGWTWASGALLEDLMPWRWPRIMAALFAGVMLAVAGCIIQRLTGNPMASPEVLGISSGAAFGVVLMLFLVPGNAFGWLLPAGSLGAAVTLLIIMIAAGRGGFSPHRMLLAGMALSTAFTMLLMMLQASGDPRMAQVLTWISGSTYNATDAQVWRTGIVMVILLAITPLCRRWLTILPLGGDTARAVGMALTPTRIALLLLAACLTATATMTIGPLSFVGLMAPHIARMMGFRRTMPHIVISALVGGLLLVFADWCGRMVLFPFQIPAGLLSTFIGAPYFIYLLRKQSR


What was measured:
[1] = biological target: T1, FhuCB subcomplex (membrane subunit FhuB and cytosolic ATPase FhuC of the ferrichrome importer), wild type (Escherichia coli); test: SEC; purified FhuCDB complex at 1 μM incubated with 10 μM ferrichrome and 5 mM ATP-Mg in solution, then gel filtration analysis; both purified
[2] = biological target: T2, FhuB, membrane subunit of FhuCDB (Escherichia coli); test: cryo-EM structure; purified FhuCDB in LMNG at ~1.2 mg/ml, single-particle cryo-EM, 3.4 Å, inward-open, no substrate bound; both purified

| binding [1] | binding [2] | Binder |
| --- | --- | --- |
| binds | binds | FhuD as co-expressed from the whole FhuCDB operon and held in the purified FhuCDB complex (protein, UniProt P07822 31-296) AAIDPNRIVALEWLPVELLLALGIVPYGVADTINYRLWVSEPPLPDSVIDVGLRTEPNLELLTEMKPSFMVWSAGYGPSPEMLARIAPGRGFNFSDGKQPLAMARKSLTEMADLLNLQSAAETHLAQYEDFIRSMKPRFVKRGARPLLLTTLIDPRHMLVFGPNSLFQEILDEYGIPNAWQGETNFWGSTAVSIDRLAAYKDVDVLCFDHDNSKDMDALMATPLWQAMPFVRAGRFQRVPAVWFYGATLSAMHFVRVLDNAIGGKA |
|  | binds | FhuC, cytosolic ATPase subunit of FhuCDB (protein, UniProt P07821 1-265) MQEYTNHSDTTFALRNISFRVPGRTLLHPLSLTFPAGKVTGLIGHNGSGKSTLLKMLGRHQPPSEGEILLDAQPLESWSSKAFARKVAYLPQQLPPAEGMTVRELVAIGRYPWHGALGRFGAADREKVEEAISLVGLKPLAHRLVDSLSGGERQRAWIAMLVAQDSRCLLLDEPTSALDIAHQVDVLSLVHRLSQERGLTVIAVLHDINMAARYCDYLVALRGGEMIAQGTPAEIMRGETLEMIYGIPMGILPHPAGAAPVSFVY |
